Assay results taken from patent US20250163137A1.
These are yes or no findings as the source states them, for the method shown. Binding calls can cover weak binding; strength is not graded here.

Assays:
[1] = biological target: DR-70 (human); assay: sandwich ELISA on serum
[2] = biological target: DR-70 (human); assay: summary of the working examples

B1: mAb 14G12-5 (antibody, V domains shown)
VH: EVQLVESGGGLVKPGGSLKLSCAASGFAFNAYDMSWVRQTPEKRLEWVAYISSSGDYTYYPDTVKGRFTVSRDNAKSTLYLHMGSLKSEDTAMYYCAVYYHYDEGLDYWGQGTALTVSS
VL: QIVLIQSPAIMSASPGEKVTMTCSASSSVNYMHWYQQKSGTSPKRWIYDTSKLASGVPARFSGSGSGTSYSLTISSMEAEDAATYYCQQWSSNPPTFGGGTKLEIKR
Question: B1 was tested. Which binding [1] did it give?
Answer: Its binding is “binds”.

Question: And the binding [2]?
Answer: Its binding is “binds”.
